This note sets out measurements from publication PMC7704619.

No constants are given. Whether binding was seen depends on the method and setting. In cells and extracts the contact can be indirect. Some entries that bind do so weakly or less than the wild type. Sequences can lack the tags named with a protein.

For the test, the target named is T1, Flag-tagged STAT6 (signal transducer and activator of transcription 6) (UniProt P42226).
T1 sequence: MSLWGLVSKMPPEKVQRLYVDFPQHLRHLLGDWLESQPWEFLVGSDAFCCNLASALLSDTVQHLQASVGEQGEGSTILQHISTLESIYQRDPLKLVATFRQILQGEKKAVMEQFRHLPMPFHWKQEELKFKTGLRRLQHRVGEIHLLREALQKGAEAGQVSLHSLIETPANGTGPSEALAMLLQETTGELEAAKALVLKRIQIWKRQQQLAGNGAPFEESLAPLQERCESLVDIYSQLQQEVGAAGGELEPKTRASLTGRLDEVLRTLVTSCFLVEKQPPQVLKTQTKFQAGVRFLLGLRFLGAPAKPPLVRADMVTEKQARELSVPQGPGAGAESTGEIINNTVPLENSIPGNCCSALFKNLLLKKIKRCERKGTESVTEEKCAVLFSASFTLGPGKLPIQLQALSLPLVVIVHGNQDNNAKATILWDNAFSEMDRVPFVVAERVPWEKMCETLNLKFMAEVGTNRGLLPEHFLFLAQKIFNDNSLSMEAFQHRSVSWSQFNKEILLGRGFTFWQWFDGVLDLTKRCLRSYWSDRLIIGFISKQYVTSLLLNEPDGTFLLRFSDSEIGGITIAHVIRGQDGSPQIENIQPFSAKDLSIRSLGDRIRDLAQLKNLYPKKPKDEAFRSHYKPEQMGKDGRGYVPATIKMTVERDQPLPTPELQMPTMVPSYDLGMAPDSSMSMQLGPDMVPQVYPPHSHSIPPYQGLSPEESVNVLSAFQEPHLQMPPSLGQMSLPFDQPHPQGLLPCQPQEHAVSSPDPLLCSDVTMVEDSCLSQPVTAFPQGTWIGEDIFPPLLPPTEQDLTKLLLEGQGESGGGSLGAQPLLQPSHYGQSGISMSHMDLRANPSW
As to the kind of experiment: co-IP; HK2 cells co-transfected with Flag-STAT6 and myc-P62 for 24 h in serum free medium; lysates immunoprecipitated separately with Flag-conjugated agarose beads or myc-conjugated magnetic beads; immunoblot with anti-Flag and anti-myc; with or without bixin treatment. (A western blot detects proteins with antibodies after separation by electrophoresis.)

“myc-tagged P62 (SQSTM1) (from UniProt Q13501 1-440)”: the binding entry was “binds”.
